Data reported in patent US9738880B2, “Lysosomal protein targeting sequence and therapeutic applications of same” (Children's Hospital Medical Center, priority 2013, dated 2017).
“Also recorded” adds a separate entry of the source. For some assays here: Part of at least one peptide drawing is inferred or uncertain, most often the ends. Some entries share one result that the patent states for a list of compounds. Residues, ends and D or L forms follow the SMILES beside them.

Tests used:
GCase binding to ldLIMP2 = biological target: T1, GCase binding to ldLIMP2 (Homo sapiens, UniProt Q14108); assay: Competitive immunoprecipitation of GCase with ldLIMP2 at increasing molar ratios of peptide
T1 construct: Purified luminal domain LIMP-2 (1d-LIMP2) was custom made (Sino Biological Inc., PRC.); purchased Sino Biological Inc
T1 sequence (Q14108 28-433 limits assumed): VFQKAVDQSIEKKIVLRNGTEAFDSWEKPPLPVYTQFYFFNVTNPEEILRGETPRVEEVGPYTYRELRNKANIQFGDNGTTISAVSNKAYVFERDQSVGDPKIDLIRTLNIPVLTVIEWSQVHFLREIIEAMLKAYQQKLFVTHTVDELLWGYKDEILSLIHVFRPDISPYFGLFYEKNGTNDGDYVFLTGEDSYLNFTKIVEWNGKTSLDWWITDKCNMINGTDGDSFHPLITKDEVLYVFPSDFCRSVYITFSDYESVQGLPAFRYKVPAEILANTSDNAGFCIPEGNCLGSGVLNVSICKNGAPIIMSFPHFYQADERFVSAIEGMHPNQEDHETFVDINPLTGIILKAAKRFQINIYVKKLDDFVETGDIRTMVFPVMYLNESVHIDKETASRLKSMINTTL
Description: FIG. 8A-FIG. 8C: Immunoprecipitation of GCase in the presence of ldLIMP2 and increasing molar ratios of the WT (DSPIIV (SEQ ID NO 15)) peptide. FIG. 8A depicts immunoprecipitation of GCase and LIMP-2. Purified WT GCase was preincubated with purified ldLIMP2 in a molar ratio of 1:1. Then, unlabeled DSPIIV (SEQ ID NO 15) was added in varying molar excesses (0 to 5×, top of figure) over GCase, incubated, and then immunoprecipitated with Protein G-coupled anti-LIMP-2 antibody beads. The beads were then eluted and the eluants were analyzed for GCase and ldLIMP2 on Western blots using the specified antibodies. […] In the bottom panel, ldLIMP2 recovery was the same at all peptide ratios. FIG. 8B depicts immunoprecipitation of GCase and LIMP-2. Purified ldLIMP2 was preincubated with unlabeled WT peptide at various molar ratios. Then, purified WT GCase was added in a 1:1 molar ratio with ldLIMP2, incubated, and then immunoprecipitated and processed as in FIG. 8A. […] FIG. 8C depicts immunoprecipitation of GCase and LIMP-2. […]
FIG. 14A-FIG. 14B: Immunoprecipitation of GCase in the presence of ldLIMP2 and increasing molar ratios of the WT (DDQRLLL (SEQ ID NO 14)) peptide. In FIG. 14A or FIG. 14B, ldLIMP2 and DDQRLLL (SEQ ID NO 14) were incubated before (as shown in FIG. 14A) or together with (as shown in FIG. 14B) GCase and analyzed as in FIG. 8A-FIG. 8C. […]

ldLIMP2 = biological target: T2, ldLIMP2 (Homo sapiens, UniProt Q14108); assay: Fluorescence polarization binding of DSPIIV GCase peptides to ldLIMP-2; settings: pH 6.8; FIG. 9
T2 construct: Purified luminal domain LIMP-2 (1d-LIMP2) was custom made (Sino Biological Inc., PRC.); purchased Sino Biological Inc
T2 sequence (Q14108 28-433 limits assumed): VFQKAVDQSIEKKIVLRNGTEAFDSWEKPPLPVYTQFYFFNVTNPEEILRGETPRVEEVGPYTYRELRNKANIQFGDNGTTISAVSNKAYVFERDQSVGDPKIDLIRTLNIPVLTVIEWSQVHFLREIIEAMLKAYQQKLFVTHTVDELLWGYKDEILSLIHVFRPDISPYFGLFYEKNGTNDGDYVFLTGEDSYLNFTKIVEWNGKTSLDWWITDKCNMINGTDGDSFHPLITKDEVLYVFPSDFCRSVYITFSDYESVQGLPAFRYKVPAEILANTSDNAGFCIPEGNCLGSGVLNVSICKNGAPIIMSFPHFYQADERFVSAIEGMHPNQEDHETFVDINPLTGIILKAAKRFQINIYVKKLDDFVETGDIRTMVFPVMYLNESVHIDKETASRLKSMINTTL
Description: FIG. 7A-FIG. 7C: Binding and competition of fluorescent labeled or unlabeled DSPIIV (SEQ ID NO 15) GCase peptides to ldLIMP2. The change (δmP) in fluorescence polarization is plotted on the ordinate and the increasing concentrations of the various peptides are on the abscissa. FIG. 7A depicts saturation kinetics under conditions in which the concentration of ldLIMP2 (50 nM) was fixed. […] FIG. 7B depicts a similar study using unlabeled peptides as competitors. […] Each of the unlabeled peptides “competed” with the labeled peptides in the expected ratios. FIG. 7C depicts a competition study in which labeled (WT*) and unlabeled (WT) peptides were used in complementary competition studies.
FIG. 9: Effect pH on binding WT and alanine substituted DSPIIV (SEQ ID NO 15) peptides to ldLIMP2. […]
Fluorescence Polarization: The DSPIIV (SEQ ID NO 15) and its mutants, and DDQRLLL (SEQ ID NO 14) peptides (FITC labeled or non-labeled) were synthesized (American Peptide Co., Vista, Calif.). Lyophilized peptides were solubilized in acetonitrile and then were diluted at least 10,000-fold into the reactions for fluorescence polarization assessments. […] Fluorescence polarization data were collected and analyzed with SoftMax Pro 5.0 software. […]

Gba1−/− fibroblasts = assay: GCase activity in media and cell lysates after transient transfection (secretion and retention); assay type: cell-based, mouse; settings: FIG. 11C
Text: FIG. 11A-FIG. 11C: Secretion and retention of GCase with alanine variants in the TDK (FIG. 11A) or DSPIIV (SEQ ID NO 15) (FIG. 11B and FIG. 11C) sequences. FIG. 11A depicts activities in the media of Gba1−/− fibroblasts following transient transfections of each of the specified alanine substituted GCases in the TDK region. […] FIG. 11B depicts in the Left Panel: Activities in the media following transient transfections of various DSPIIV (SEQ ID NO 15) alanine substituted GCases and the % of GCase secreted. The latter was calculated as {ng GCase (in media)/[ng GCase (in media)+ng (GCase in lysates)]}×100 (also see Table 2). […] The transfections alone (Null+lipo) had no effect. […] FIG. 11C deicts in cellular lysate GCase activities from the various alanine substituted GCases in the DSPIIV (SEQ ID NO 15) sequence as indicated. […] The doubly alanine substituted GCase had little intracellular activity, i.e., nearly all the GCase was secreted into the media.
Enzyme Assays: Cell pellets were homogenized in 0.25% Na-taurocholate and 0.25% Triton X-100. GCase activities were determined fluorometrically with 4 mM 4MU-Glc in 0.2M/0.1M citric-phosphate, pH 5.6 (18, 54)

**Q.** CC[C@H](C)[C@H](NC(=O)[C@@H](NC(=O)[C@@H]1CCCN1C(=O)[C@H](CO)NC(=O)[C@@H](N)CC(=O)O)[C@@H](C)CC)C(=O)N[C@H](C(=O)O)C(C)C [DSPIIV] (H-DSPIIV-OH) was tested. Which “competition of bound GCase off ldLIMP2, in words” value (GCase binding to ldLIMP2; GCase preincubated with ldLIMP2 1:1, then peptide 0 to 5× molar excess) did it give?
**A.** The value was “competed bound GCase off of ldLIMP2; also recorded: competes off binding to ldLIMP-2”.

**Q.** And the “prevention of GCase binding to ldLIMP2, in words” value (GCase binding to ldLIMP2; peptide preincubated with ldLIMP2 before GCase was added, up to 5× molar)?
**A.** Its value is “prevents the binding of ldLIMP2 and WT GCase; also recorded: Almost all GCase binding to LIMP 2 was prevented”.

**Q.** DSPAIV was tested. Which “ldLIMP2 binding relative to WT peptide” value (ldLIMP2) did it give?
**A.** The value was 40-50 % of WT.

**Q.** DSPIAV was tested. Which “ldLIMP2 binding relative to WT peptide” value (ldLIMP2) did it give?
**A.** The value was 40-50 % of WT.

B1: D399A: human GCase variant with D399A (ASPIIV sequence) (protein, UniProt P04062 40-536, looked up, variant D399A)
Lysosomal acid …: ARPCIPKSFGYSSVVCVCNATYCDSFDPPTFPALGTFSRYESTRSGRRMELSMGPIQANHTGTGLLLTLQPEQKFQKVKGFGGAMTDAAALNILALSPPAQNLLLKSYFSEEGIGYNIIRVPMASCDFSIRTYTYADTPDDFQLHNFSLPEEDTKLKIPLIHRALQLAQRPVSLLASPWTSPTWLKTNGAVNGKGSLKGQPGDIYHQTWARYFVKFLDAYAEHKLQFWAVTAENEPSAGLLSGYPFQCLGFTPEHQRDFIARDLGPTLANSTHHNVRLLMLDDQRLLLPHWAKVVLTDPEAAKYVHGIAVHWYLDFLAPAKATLGETHRLFPNTMLFASEACVGSKFWEQSVRLGSWDRGMQYSHSIITNLLYHVVGWTDWNLALNPEGGPNWVRNFVASPIIVDITKDTFYKQPMFYHLGHFSKFIPEGSQRVGLVASQKNDLDAVALMHPDGSAVVVVLNRSSKDVPLTIKDPAVGFLETISPGYSIHTYLWRRQ
**Q.** Which “GCase activity in cell lysates relative to WT” value (Gba1−/− fibroblasts) does the source give for B1 here?
**A.** The value was 15-20 % of WT.
